Assay results: PubChem BioAssay AID540256 (National Center for Advancing Translational Sciences (NCATS), 2011)
Out of some 300,000 compounds screened, about 3,700 (1.2%) were called active. This list was built around the results that the source calls inconclusive (neither active nor inactive); the mix of calls is not that of the screen. Calls follow the shape of the full dose curve; tested in HEK293 cells. A potency beside an inconclusive call is a rough fit, not a confirmed value.
% is scaled to controls: 0 for no effect and ±100 for the full control effect; potency is read from the fitted curve at half-maximal effect.

Experiment: qHTS for Inhibitors of binding or entry into cells for Lassa Virus; also: nearly all actives have a fitted effect of over 50% in size
Details: Lassa virus pseudotype entry inhibition, cell reporter; activity change, negative = inhibition: at 37.9 µM (top of the series) unless noted
In the case of Cc1c(C(=O)Nc2ccc(S(=O)(=O)N(C)C3CCN(C)CC3)cc2)oc2ccccc12, the Potency is reported as inconclusive: 35.5 µM [inhibitor, single point].
With CCOC(=O)c1cc(NC(=O)Cc2ccc(S(=O)(=O)N3CCOCC3)s2)cc(C(=O)OCC)c1 the Potency was inconclusive: 35.5 µM [inhibitor, single point].
For Cc1ccc(-n2ncc3c(Nc4cccc(C(F)(F)F)c4)ncnc32)cc1C, the Potency was inconclusive: 35.5 µM [activator, single point].
With O=C(O)CCC(=O)c1ccc2c(c1)CCCC2 the Potency was inconclusive: 5.62 µM [inhibitor, single point].
In the case of Cc1cccc(NC(=O)c2cc(-c3ccccn3)nc3ccccc23)c1C, the Potency is reported as inconclusive: 17.8 µM [inhibitor, partial curve, poor fit].
With Cc1ccccc1OCc1nc2ccccc2c(=O)n1/N=C/c1cn[nH]c1-c1ccc(Br)cc1 the Potency was inconclusive: 25.9 µM [activator, partial curve, poor fit].
With CCn1c(SCC(=O)N2CCc3ccccc32)nnc1-c1ccco1 the Potency was “inactive”.
In the case of O=S(=O)(NCc1csc(-c2cccs2)n1)c1cccs1, the Potency is reported as inconclusive: 6.31 µM [activator, single point].
With COc1ccc(NC(=O)c2cc(-c3ccco3)nc3ccccc23)cc1 the Potency was inconclusive: 0.891 µM [inhibitor, single point].
In the case of CC(C)OCCCNC(=S)Nc1ccc(S(N)(=O)=O)cc1, the Potency is reported as inconclusive: 9.2 µM [activator, partial curve, poor fit].
With CC(CCN1CCN(c2ccc(F)cc2)CC1)c1ccccc1 (stereo unspecified) the Potency was inconclusive: 22.4 µM [inhibitor, single point].
For O=C(Nc1ccccc1)c1ccc(Nc2c([N+](=O)[O-])cc([N+](=O)[O-])c3ccccc23)cc1, the Potency was “inactive”.
For O=S(=O)(c1ccc(Br)cc1)N1CCCN(Cc2ccccc2F)CC1, the Potency was “inactive”.
In the case of Cc1cc(NC(=O)Nc2nnc(N3CCCCC3)s2)ccc1Br, the Potency is reported as “inactive”.
In the case of C/C(N)=C(/C#N)C(=O)CSc1nc2cc(Cl)ccc2c(=O)n1Cc1ccco1, the Potency is reported as inconclusive: 3.16 µM [inhibitor, full curve, poor fit].
In the case of COc1cc(/C=C/C(=O)OCC(=O)NC(=O)NC(C)(C)C)ccc1OCC#N, the Potency is reported as inconclusive: 29.1 µM [inhibitor, single point].
With COc1ccc2c(c1)sc1nc(-c3ccccc3)cn12 the Potency was active: 0.501 µM.
In the case of O=[N+]([O-])c1ccc(C(O)C(CO)NC(=S)Nc2ccccc2)cc1 (stereo unspecified), the Potency is reported as inconclusive: 0.562 µM [activator, full curve, poor fit].
With COc1cc(OC)c(NC(=O)Cn2cnc3sc(C)c(S(=O)(=O)N4CCC(C)CC4)c3c2=O)cc1Cl the Potency was inconclusive: 35.5 µM [activator, partial curve, poor fit].
In the case of CCCCn1c2c(c(=N)c3c1CCC3)CCC2, the Potency is reported as inconclusive: 35.5 µM [inhibitor, single point].
For O=C(CCC(=O)Nc1ccccc1)NNC(=O)CCc1ccccc1, the Potency was inconclusive: 10 µM [activator, partial curve, poor fit].
In the case of O=C(CSc1nc2ccccc2c2c1CCCC2)N1CCOCC1, the Potency is reported as inconclusive: 11.2 µM [inhibitor, partial curve, poor fit].
For O=C(NCCOc1ccccc1Cl)c1cc(F)c(F)cc1Cl, the Potency was “inactive”.
With CN1C(=O)C(O)(CC(=O)/C=C/c2ccco2)c2ccccc21 (stereo unspecified) the activity change, negative = inhibition was inconclusive: 32.4% [activator].
For COc1cccc(C2CC(c3c(-c4ccccc4)c4cc(Cl)ccc4[nH]c3=O)=NN2S(C)(=O)=O)c1OC (stereo unspecified), the Potency was inconclusive: 12.6 µM [inhibitor, partial curve, poor fit].
With O=C(CSc1nc(=O)n(Cc2ccco2)c2c1CCC2)NCc1ccc(Cl)cc1 the Potency was “inactive”.
With CC1(C)Cc2nc3sc4c(SCC(=O)NCc5ccco5)ncnc4c3cc2CO1 the Potency was inconclusive: 14.1 µM [inhibitor, partial curve, poor fit].
With Cc1ccc(NC(=O)CCn2c(=O)c3cccn3c3ccccc32)cc1Cl the Potency was inconclusive: 20 µM [inhibitor, single point].
In the case of Cc1ncsc1C(=O)O, the Potency is reported as inconclusive: 0.631 µM [inhibitor, single point].
In the case of CCC(=NCCC(c1ccccc1)c1ccccc1)c1c(O)n(C)c(=O)n(C)c1=O, the Potency is reported as inconclusive: 1.58 µM [inhibitor, full curve, poor fit].
With CN(C)c1ccc(/C=N/N=C2/NC(=O)/C(=C/c3ccc([N+](=O)[O-])cc3)S2)cc1 the Potency was active: 2 µM.
For CCCCCC(=O)Nc1ccc(C(=O)N/N=C/c2ccc([N+](=O)[O-])cc2)cc1, the Potency was inconclusive: 0.891 µM [inhibitor, full curve, poor fit].
For Cc1cccc(OCC(=O)Nc2ccc(NC(=O)c3ccccc3)cc2)c1, the Potency was “inactive”.
With COCCN1C(=O)c2ccccc2C(C(=O)NCCCN2CCCC2)C1c1c[nH]c2ccccc12 (stereo unspecified) the Potency was “inactive”.
For NC(N)=N/N=C/c1ccc(OCc2ccc(Cl)cc2)cc1, the Potency was inconclusive: 29.1 µM [inhibitor, single point].
For Cc1ccc2nc(Nc3nc(CSc4nnnn4-c4ccccc4)cc(=O)[nH]3)nc(C)c2c1, the Potency was “inactive”.
With CN1CCN(CCCN(Cc2ccco2)C(=S)Nc2ccc(Cl)cc2)CC1 the Potency was inconclusive: 35.5 µM [inhibitor, single point].
With Cc1cc(/C=C2\Cc3ccccc3C2=O)c(C)n1-c1ccccc1 the Potency was inconclusive: 0.316 µM [inhibitor, full curve, poor fit].
In the case of Cc1cccc(N2CCN(C(=O)C3CCC(CNS(=O)(=O)c4cccs4)CC3)CC2)c1C (stereo unspecified), the Potency is reported as inconclusive: 6.31 µM [inhibitor, full curve].
In the case of Cn1cccc1/C=N/n1c(-c2ccc(C(C)(C)C)cc2)n[nH]c1=S, the Potency is reported as active: 10 µM.
In the case of CCN(CC)S(=O)(=O)c1cc(-c2nnc(-c3ccc(Br)cc3)o2)ccc1Cl, the Potency is reported as inconclusive: 11.2 µM [inhibitor, partial curve, poor fit].
In the case of N/C(=N\OC(=O)CCn1cccc(C(F)(F)F)c1=O)c1ccc(OC(F)(F)F)cc1, the Potency is reported as inconclusive: 20 µM [activator, single point].
With CCc1cccc(Nc2c([N+](=O)[O-])cc(C(=O)N3CC(=O)Nc4ccccc43)cc2[N+](=O)[O-])c1 the Potency was inconclusive: 23.1 µM [inhibitor, single point].
For CCOc1ccc(N(C(C)C(=O)NCCSc2ccc(Cl)cc2)S(C)(=O)=O)cc1 (stereo unspecified), the Potency was inconclusive: 35.5 µM [inhibitor, single point].
For CCCCN1c2ccccc2N(CCCO)c2cc(C)nnc21, the Potency was “inactive”.
For Cc1cc(=O)oc2cc(OCc3nnc(-c4ccccc4Br)o3)ccc12, the Potency was inconclusive: 35.5 µM [inhibitor, single point].
With COc1ccc(/C=N/Nc2nonc2N)cc1 the Potency was “inactive”.
For Cc1ccc(/C=N/NC(=O)c2ccc(N(C)S(=O)(=O)c3ccccc3)cc2)cc1, the Potency was inconclusive: 10 µM [inhibitor, partial curve, poor fit].
For Cc1ccc(C(=O)Nc2ccc(S(=O)(=O)N3CCc4ccccc43)cc2)o1, the Potency was inconclusive: 16.4 µM [inhibitor, partial curve].
With O=C(NCC1CCCO1)c1cc(-c2ccc(Cl)cc2Cl)on1 (stereo unspecified) the Potency was inconclusive: 35.5 µM [inhibitor, single point].
For O=C(N/N=C/c1ccc(-c2cccc([N+](=O)[O-])c2)o1)[C@H]1C[C@@H]1c1ccccc1, the Potency was active: 3.98 µM.
In the case of CCOc1ccc(NC(=O)CSc2nnc(C)n2CC)cc1, the Potency is reported as inconclusive: 22.4 µM [activator, single point].
With Cc1cc(NC(=O)CSCC(=O)Nc2ccccc2Oc2ccccc2)no1 the Potency was inconclusive: 20 µM [inhibitor, single point].
With COc1ccc(N=Cc2c(O)cc(C)oc2=O)cc1 the Potency was inconclusive: 4.47 µM [inhibitor, full curve, poor fit].
In the case of CN(C)c1ccc(N/C=C/C(=O)c2ccc(F)cc2)cc1, the Potency is reported as inconclusive: 25.9 µM [inhibitor, single point].
With COc1ccc(C(=O)c2coc3c2C(=O)C(=O)c2ccccc2-3)cc1 the Potency was active: 11.2 µM.
With COc1ccc2nc(N3CCN(C(=O)c4ccc([N+](=O)[O-])o4)CC3)sc2c1 the Potency was inconclusive: 35.5 µM [inhibitor, single point].
For Cc1nc(N2CCN(c3ccccc3)CC2)nc2c1C(=O)CC(C)C2 (stereo unspecified), the Potency was “inactive”.
For CC(=O)c1cccc(NC(=O)c2cc(-c3ccco3)nc3ccccc23)c1, the Potency was “inactive”.
In the case of O=C(CSc1nc2ccccc2c(=O)n1-c1ccc(F)cc1F)Nc1ccc2c(c1)CCC2, the Potency is reported as inconclusive: 29.1 µM [inhibitor, single point].
In the case of Cc1ccc(S(=O)(=O)N(C)CCCC(=O)Nc2cc(C)ccc2C)cc1, the Potency is reported as inconclusive: 20.6 µM [inhibitor, single point].
In the case of COc1ccc(CNC(=O)CSc2nc(-c3ccccc3)cc(-c3cccs3)c2C#N)cc1, the Potency is reported as “inactive”.
For O=C(NCc1ccccc1)C1Cc2ccccc2CN1C(=O)c1ccco1 (stereo unspecified), the Potency was “inactive”.
With CCCCN(CCCNC(=O)C1CCN(C(=O)c2cc3sccc3n2C)CC1)Cc1ccccc1 the Potency was inconclusive: 35.5 µM [inhibitor, single point].
In the case of CC1CC2(CCCCC2)Nc2ccc3ccccc3c21 (stereo unspecified), the Potency is reported as inconclusive: 12.6 µM [inhibitor, single point].
For CCCCNc1nc(Oc2ccc(=O)n(-c3ccccc3)n2)nc(N(CC)CC)n1, the Potency was inconclusive: 35.5 µM [activator, single point].
